Laboratory results from PMC12657314, “Structural modeling and biochemical characterization of MSMEG_0748, a MoxR ATPase from Mycobacterium smegmatis” (Computational and Structural Biotechnology Journal, 2025).
Results are given in words; binding and its absence hold for the method and conditions named. Binding seen in cells or lysates may run through a third protein. Some binding calls cover weakened binding; strength is not graded here. Tags and fused reporters may be left off the sequences shown. Blank lines part the entries; values can stand above or below the binder they belong to.

How the values were obtained:
[1] = target: T1, HA-tagged MSMEG_0748 (Mycobacterium smegmatis) (UniProt A0QQG6); experiment: co-IP; HEK293T cells co-transfected, lysed in NP-40 buffer; lysates incubated with anti-HA or anti-FLAG antibody 3 h at 4°C, Protein A-Sepharose beads 1 h; immunoblot
T1 sequence: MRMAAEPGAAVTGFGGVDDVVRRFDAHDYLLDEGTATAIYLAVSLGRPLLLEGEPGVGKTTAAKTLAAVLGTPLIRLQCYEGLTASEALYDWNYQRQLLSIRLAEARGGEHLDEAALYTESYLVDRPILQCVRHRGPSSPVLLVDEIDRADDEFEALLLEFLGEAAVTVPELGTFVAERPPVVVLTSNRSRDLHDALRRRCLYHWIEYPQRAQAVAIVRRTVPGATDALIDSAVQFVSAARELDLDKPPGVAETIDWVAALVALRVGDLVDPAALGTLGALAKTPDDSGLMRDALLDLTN

[2] = target: T2, Flag-tagged MSMEG_0751 (VWA domain-containing protein) (Mycobacterium smegmatis) (UniProt A0QQG8); experiment: as above
T2 sequence: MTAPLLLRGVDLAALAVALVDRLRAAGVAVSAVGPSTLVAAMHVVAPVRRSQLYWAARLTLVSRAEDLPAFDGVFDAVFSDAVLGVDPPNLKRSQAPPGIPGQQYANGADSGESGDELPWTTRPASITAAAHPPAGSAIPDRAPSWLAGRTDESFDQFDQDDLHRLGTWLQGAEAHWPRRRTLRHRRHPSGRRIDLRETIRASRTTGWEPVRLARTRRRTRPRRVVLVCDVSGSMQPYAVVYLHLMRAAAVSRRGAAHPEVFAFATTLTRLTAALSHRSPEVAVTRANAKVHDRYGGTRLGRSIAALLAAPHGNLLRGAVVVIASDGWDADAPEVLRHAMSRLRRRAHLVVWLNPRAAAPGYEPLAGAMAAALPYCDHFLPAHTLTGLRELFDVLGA

binding [1]: binds
B1: Flag-tagged MSMEG_0751 (VWA domain-containing protein) (protein, UniProt A0QQG8 1-397)
chain: T2 sequence

binding [2]: binds
B2: HA-tagged MSMEG_0748 (enzyme, UniProt A0QQG6 1-300)
chain: T1 sequence
